Among the data in the supplement of paper PMC10849652 are log2 fold change values, retold here.

Amino acid sequences for entries named in this document (tags omitted). A change or cut given only in a name is not applied to a line headed by its entry.
UniProt Q9NR46: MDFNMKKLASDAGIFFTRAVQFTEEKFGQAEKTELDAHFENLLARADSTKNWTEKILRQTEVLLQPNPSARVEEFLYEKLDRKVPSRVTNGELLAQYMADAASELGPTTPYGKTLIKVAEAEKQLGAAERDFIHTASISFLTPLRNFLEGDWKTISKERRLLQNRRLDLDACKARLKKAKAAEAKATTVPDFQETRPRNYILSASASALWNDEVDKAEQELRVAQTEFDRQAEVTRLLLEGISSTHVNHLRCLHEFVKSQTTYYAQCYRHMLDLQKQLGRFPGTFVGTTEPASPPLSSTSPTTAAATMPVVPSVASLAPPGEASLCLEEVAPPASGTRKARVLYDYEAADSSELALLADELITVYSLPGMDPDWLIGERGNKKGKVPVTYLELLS
UniProt Q9HD40: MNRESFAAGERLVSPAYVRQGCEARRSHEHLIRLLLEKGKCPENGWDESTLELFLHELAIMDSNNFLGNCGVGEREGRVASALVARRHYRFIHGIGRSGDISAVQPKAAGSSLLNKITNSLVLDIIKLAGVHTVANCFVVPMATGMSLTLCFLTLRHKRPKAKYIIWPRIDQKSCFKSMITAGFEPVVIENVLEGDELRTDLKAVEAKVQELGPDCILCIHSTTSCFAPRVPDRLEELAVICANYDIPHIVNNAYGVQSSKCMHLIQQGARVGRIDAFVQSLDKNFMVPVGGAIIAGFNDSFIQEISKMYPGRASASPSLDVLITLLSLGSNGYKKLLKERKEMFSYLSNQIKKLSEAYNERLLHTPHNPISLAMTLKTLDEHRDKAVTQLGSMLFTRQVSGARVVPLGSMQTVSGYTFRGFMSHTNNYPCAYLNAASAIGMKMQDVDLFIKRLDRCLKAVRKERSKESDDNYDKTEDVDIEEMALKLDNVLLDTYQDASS
UniProt P29353: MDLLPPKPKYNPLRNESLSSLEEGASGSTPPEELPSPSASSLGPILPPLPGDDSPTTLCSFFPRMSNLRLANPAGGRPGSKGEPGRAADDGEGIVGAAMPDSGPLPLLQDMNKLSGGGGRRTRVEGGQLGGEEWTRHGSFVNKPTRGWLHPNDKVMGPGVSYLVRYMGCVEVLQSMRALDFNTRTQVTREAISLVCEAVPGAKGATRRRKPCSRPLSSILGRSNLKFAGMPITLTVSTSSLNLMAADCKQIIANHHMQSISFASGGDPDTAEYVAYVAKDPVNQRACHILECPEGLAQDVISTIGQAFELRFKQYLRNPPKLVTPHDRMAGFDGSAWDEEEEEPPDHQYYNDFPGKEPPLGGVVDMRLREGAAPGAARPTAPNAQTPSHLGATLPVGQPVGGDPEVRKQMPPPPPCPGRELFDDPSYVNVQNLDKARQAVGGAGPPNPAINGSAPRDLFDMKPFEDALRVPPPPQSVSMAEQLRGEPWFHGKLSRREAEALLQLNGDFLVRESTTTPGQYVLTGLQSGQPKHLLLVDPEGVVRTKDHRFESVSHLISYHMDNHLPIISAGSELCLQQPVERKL
UniProt Q13530: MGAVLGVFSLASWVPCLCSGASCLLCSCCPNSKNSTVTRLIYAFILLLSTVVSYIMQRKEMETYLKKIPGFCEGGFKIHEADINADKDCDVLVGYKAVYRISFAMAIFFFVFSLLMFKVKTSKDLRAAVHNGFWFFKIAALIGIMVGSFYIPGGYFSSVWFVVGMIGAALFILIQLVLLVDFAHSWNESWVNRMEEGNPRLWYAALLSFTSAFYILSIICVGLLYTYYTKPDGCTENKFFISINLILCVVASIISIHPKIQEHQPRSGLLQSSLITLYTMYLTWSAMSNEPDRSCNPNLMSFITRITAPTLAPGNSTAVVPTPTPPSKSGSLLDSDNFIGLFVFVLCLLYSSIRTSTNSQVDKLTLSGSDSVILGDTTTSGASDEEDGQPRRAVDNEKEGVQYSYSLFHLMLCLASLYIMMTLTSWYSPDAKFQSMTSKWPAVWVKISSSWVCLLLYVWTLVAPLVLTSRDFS
UniProt Q15427: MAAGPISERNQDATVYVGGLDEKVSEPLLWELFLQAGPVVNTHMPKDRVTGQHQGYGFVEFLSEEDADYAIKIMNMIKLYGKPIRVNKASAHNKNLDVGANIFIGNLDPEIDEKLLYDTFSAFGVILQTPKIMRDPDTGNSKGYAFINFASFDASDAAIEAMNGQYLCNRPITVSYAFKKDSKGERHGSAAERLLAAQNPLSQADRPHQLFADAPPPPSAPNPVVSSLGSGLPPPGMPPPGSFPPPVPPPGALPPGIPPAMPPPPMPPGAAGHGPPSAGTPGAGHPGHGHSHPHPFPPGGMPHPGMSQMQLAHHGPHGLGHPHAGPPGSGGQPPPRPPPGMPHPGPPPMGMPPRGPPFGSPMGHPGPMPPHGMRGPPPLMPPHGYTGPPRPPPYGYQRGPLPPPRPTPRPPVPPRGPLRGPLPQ
UniProt O43765: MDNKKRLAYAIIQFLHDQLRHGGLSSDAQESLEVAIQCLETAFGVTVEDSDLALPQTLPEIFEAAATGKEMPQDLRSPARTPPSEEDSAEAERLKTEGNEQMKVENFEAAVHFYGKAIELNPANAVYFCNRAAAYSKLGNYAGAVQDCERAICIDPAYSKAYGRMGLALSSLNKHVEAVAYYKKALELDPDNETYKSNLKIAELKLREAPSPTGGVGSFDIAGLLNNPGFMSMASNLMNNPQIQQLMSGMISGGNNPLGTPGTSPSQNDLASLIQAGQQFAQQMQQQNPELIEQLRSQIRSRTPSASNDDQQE
UniProt Q9UHD8: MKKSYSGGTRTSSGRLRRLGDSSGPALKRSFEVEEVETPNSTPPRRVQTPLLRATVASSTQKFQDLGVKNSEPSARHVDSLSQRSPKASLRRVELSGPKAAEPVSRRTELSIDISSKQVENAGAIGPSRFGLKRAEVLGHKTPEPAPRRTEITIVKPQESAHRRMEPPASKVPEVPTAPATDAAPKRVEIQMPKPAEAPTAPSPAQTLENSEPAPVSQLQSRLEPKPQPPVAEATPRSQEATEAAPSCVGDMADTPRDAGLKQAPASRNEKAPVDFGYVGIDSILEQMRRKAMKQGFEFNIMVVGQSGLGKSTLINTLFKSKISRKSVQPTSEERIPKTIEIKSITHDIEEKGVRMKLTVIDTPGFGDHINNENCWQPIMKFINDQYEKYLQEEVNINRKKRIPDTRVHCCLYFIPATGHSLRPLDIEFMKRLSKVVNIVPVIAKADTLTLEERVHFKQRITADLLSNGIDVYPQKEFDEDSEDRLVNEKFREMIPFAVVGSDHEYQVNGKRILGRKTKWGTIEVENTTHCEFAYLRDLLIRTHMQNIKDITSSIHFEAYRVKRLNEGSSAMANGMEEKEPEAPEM
UniProt Q92599: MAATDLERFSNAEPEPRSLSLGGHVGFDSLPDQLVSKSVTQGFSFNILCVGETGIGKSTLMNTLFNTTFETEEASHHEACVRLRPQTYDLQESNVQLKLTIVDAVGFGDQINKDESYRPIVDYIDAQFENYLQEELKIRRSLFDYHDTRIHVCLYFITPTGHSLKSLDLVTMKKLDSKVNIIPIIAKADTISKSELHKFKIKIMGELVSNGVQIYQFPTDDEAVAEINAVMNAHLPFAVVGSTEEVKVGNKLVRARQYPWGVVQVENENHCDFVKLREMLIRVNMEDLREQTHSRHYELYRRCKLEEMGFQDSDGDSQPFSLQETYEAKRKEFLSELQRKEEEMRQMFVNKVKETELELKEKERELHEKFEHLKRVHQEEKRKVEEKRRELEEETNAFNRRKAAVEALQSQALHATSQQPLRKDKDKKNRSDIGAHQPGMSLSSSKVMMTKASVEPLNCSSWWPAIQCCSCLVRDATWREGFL
UniProt Q9NRX5: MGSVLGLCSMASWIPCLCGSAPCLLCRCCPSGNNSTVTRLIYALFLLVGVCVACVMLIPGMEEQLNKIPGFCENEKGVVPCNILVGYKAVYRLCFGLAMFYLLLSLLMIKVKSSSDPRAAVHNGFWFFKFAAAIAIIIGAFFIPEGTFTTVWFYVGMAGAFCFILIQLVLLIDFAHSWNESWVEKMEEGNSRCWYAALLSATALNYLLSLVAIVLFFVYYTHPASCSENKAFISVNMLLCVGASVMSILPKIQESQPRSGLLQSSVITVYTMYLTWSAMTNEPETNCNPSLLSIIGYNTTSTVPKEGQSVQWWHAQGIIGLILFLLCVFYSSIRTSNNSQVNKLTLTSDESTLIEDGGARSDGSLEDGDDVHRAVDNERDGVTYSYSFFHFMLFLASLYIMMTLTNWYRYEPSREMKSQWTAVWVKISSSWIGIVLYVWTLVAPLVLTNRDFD
UniProt Q9H299: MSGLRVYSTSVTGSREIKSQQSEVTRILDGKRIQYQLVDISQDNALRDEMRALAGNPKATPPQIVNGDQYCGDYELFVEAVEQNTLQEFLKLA
UniProt P05543: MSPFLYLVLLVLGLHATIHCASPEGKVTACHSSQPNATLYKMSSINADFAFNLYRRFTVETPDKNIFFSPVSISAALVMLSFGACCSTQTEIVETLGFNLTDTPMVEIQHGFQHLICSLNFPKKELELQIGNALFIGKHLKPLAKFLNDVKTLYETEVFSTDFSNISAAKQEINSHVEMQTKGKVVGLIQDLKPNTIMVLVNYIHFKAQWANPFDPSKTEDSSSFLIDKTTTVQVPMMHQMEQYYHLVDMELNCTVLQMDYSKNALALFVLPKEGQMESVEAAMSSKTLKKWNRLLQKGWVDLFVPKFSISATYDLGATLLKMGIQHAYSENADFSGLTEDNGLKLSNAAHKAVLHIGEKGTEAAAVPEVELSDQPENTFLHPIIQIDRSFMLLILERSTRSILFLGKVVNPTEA
UniProt Q9NPR2: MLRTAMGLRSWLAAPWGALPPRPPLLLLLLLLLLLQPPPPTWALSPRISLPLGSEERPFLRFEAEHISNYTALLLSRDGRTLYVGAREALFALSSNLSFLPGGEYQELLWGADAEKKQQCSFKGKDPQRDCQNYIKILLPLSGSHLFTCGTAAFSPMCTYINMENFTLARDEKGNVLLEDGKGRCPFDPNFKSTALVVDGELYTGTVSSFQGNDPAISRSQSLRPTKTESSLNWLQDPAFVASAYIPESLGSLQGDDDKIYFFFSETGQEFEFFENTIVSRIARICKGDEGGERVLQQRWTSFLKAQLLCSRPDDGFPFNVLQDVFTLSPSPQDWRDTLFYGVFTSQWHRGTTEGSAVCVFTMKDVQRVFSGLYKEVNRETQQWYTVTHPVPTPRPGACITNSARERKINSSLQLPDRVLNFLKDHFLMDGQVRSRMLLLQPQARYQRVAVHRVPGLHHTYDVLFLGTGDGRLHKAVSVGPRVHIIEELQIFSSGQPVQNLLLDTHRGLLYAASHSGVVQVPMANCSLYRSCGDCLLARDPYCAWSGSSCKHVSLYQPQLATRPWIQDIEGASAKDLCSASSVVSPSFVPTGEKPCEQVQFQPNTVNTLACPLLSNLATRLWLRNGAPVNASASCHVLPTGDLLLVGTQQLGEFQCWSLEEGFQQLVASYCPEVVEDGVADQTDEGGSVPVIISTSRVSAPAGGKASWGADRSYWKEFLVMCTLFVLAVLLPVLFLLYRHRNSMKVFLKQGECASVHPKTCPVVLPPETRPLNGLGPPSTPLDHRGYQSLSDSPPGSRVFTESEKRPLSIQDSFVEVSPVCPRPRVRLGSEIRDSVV
UniProt Q9C0C4, whole entry, looked up: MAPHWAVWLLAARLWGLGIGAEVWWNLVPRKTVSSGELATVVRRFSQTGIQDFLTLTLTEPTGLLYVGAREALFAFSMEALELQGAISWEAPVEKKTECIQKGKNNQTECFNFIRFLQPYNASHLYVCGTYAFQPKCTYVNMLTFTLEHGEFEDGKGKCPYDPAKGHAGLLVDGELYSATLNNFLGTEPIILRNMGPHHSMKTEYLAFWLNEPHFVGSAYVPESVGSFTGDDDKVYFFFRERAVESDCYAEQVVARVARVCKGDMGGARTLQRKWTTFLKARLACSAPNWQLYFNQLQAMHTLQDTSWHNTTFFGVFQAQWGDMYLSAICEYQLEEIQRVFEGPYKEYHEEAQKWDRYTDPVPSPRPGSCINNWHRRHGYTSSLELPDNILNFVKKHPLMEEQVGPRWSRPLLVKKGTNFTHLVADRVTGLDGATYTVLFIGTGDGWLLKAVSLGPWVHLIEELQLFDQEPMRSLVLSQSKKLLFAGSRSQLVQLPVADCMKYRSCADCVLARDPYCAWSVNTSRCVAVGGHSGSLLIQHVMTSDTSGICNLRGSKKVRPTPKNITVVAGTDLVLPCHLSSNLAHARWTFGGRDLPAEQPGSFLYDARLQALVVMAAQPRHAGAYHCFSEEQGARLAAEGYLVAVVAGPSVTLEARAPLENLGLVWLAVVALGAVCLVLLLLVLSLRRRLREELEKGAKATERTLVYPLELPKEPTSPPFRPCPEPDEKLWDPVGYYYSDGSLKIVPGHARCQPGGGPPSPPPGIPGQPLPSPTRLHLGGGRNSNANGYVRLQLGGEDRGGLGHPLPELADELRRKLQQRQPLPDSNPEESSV

The other results are listed elsewhere or left out.

Test in all cases: log2 fold change, soluble protein after heating vs DMSO (PISA); higher = thermal stabilisation; K562 cells, 10 uM, 30 min; active = over 0.2 and 3.5 SD of the protein, either way, in both replicates (recomputed)
Compound in assay [1]: CC1=C(C=C(C=C1)NC(=O)C2=CC(=CC=C2)C(C)(C)C#N)NC3=CC4=C(C=C3)N=CN(C4=O)C
The method in brief:
(§1)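 K562 cells at 2×10^6 cells/mL were exposed to 10 μM compound for 30 min, then aliquots were heated for 3 min across 48°C-58°C, pooled, and extracted in PBS containing 0.5% NP-40 at 4°C. The supernatant after 21,000xg for 90 min was taken as soluble protein and measured by TMTpro 16plex LC-MS/MS with channel sums equalised. Thermal stability is reported relative to control samples, with values from duplicates. Fold changes are given on a log2 scale.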

Compound in assay [2]: CC1=C(C=C(C=C1)NC(=O)C2=CC(=CC=C2)N(C)C)NC(=O)C3=CC=C(C=C3)O
In a few lines:
as §1

Compound in assay [3]: CC1=CC=C(C=C1)SC2=C3C=C(SC3=CN=C2)C(=O)N
In a few lines: as §1

Compound in assay [4]: CC1=NC(=CC=C1)C2=C(N=C(N2)C(C)(C)C)C3=CC4=NC=CN=C4C=C3
The method in brief: as §1

Compound in assay [5]: CCCCN(Cc1ccc(C(=O)NO)cc1)C(=O)Nc1ccccc1 [Nexturastat A]
The method in brief:
as §1

Compound in assay [6]: CCCS(=O)(=O)Nc1ccc(F)c(C(=O)c2c[nH]c3ncc(-c4ccc(Cl)cc4)cc23)c1F [vemurafenib]
In a few lines:
as §1

Compound in assay [7]: CCCS(=O)(=O)Nc1ccc(F)c(C(=O)c2c[nH]c3ncc(Cl)cc23)c1F
In a few lines:
as §1

Compound in assay [8]: CCCc1cc(C)[nH]c(=O)c1CNC(=O)c1cc(-c2ccnc(N3CCN(C)CC3)c2)cc2c1cnn2C(C)C
In a few lines: as §1

Compound in assay [9]: CCN(CC)Cc1ccc2cc(COC(=O)Nc3ccc(C(=O)NO)cc3)ccc2c1 [givinostat]
The method in brief:
as §1

Compound in assay [10]: CCN(CCCOc1ccc2c(Nc3cc(CC(=O)Nc4cccc(F)c4)[nH]n3)ncnc2c1)CCOP(=O)(O)O [barasertib]
The method in brief:
as §1

Take SH3GLB2 (UniProt Q9NR46): the log2 fold change in assay [1] was inactive: 0.047; in [2], inactive: -0.052; in assay [3] it was inactive: 0.025; in assay [4] it was inactive: 0.033; in [5], inactive: -0.064; in assay [6] it was inactive: 0.058. The log2 fold change is inactive: 0.058 in [7], inactive: 0.021 in [8], inactive: 0.049 in assay [9] and inactive: 0.051 in assay [10].
Turning to SEPSECS (UniProt Q9HD40), the log2 fold change was inactive: 0.034 in [1]; inactive: 0.017 in assay [2]; inactive: 0.08 in [3]; inactive: 0.01 in assay [4]; inactive: -0.028 in [5]; inactive: 0.041 in [6]. Further, the log2 fold change in [7] was inactive: 0.043; in assay [8] it was inactive: -0.067; in assay [9], inactive: 0.014; in assay [10], inactive: 0.061.
As for SHC1 isoform 6 (UniProt P29353), the log2 fold change was inactive: 0.016 in assay [1]; inactive: -0.004 in assay [2]; inactive: 0.031 in assay [3]; inactive: 0.011 in assay [4]; inactive: -0.156 in [5]; inactive: -0.013 in assay [6]. Moreover, the log2 fold change was inactive: 0.001 in assay [7], inactive: -0.005 in assay [8], inactive: 0.017 in [9] and inactive: 0.006 in assay [10].
For the target SERINC3 (UniProt Q13530), the log2 fold change in assay [1] is inactive: -0.136; in assay [2], inactive: -0.001; in [3], inactive: 0.009; in assay [4], inactive: 0.054; in assay [5], inactive: 0.011; in [6] it was inactive: 0.083. Also, the log2 fold change in assay [7] is inactive: 0.002; in [8], active: -0.414; in assay [9], inactive: 0.064; in assay [10] it was inactive: 0.038.
For the target SF3B4 (UniProt Q15427), the log2 fold change is inactive: 0.004 in assay [1]; inactive: 0.055 in [2]; inactive: -0.007 in assay [3]; inactive: -0.018 in assay [4]; inactive: 0.05 in [5]; inactive: 0.027 in [6]. The log2 fold change in [7] was inactive: -0.085; in assay [8], inactive: 0.053; in assay [9], inactive: 0.018; in [10], inactive: -0.048.
Consider SERPINB6, A0A087X1N8, for which the log2 fold change in [1] is inactive: -0.033; in [2] it was inactive: -0.003; in assay [3], inactive: -0.005; in assay [4] it was inactive: 0.052; in assay [5], inactive: -0.009; in assay [6], inactive: 0.037. Moreover, the log2 fold change in assay [7] is inactive: 0.003; in assay [8], inactive: 0.017; in assay [9] it was inactive: -0.063; in assay [10], inactive: -0.017.
As for SGTA (UniProt O43765), the log2 fold change in [1] is inactive: 0.008; in assay [2] it was inactive: -0.051; in assay [3] it was inactive: 0.028; in assay [4] it was inactive: 0.044; in [5], inactive: -0.043; in assay [6] it was inactive: 0.018. The log2 fold change in [7] was inactive: 0.059; in assay [8], inactive: -0.031; in assay [9] it was inactive: 0.016; in assay [10], inactive: 0.048.
With SEPTIN9 (UniProt Q9UHD8), the log2 fold change is inactive: 0.007 in assay [1]; inactive: -0.021 in assay [2]; inactive: 0 in assay [3]; inactive: -0.024 in assay [4]; inactive: -0.043 in assay [5]; inactive: 0.009 in assay [6]. For the same target, the log2 fold change in [7] is inactive: -0.018; in assay [8], inactive: -0.06; in assay [9], inactive: 0.01; in assay [10] it was inactive: 0.033.
For the target SEPTIN8 (UniProt Q92599), the log2 fold change in [1] was inactive: 0.001; in assay [2], inactive: 0.003; in assay [3] it was inactive: 0.028; in assay [4], inactive: 0.015; in assay [5], inactive: -0.126; in [6], inactive: 0.016. In addition, the log2 fold change in assay [7] is inactive: 0.007; in assay [8], inactive: -0.012; in assay [9] it was inactive: -0.017; in assay [10] it was inactive: -0.006.
In the case of SF3B2 (UniProt Q13435), the log2 fold change in assay [1] is inactive: 0.05; in assay [2], inactive: -0.025; in [3], inactive: -0.019; in [4] it was inactive: -0.05; in assay [5] it was inactive: 0.104; in assay [6], inactive: 0.021. For the same target, the log2 fold change in [7] is inactive: 0.01; in [8], inactive: 0.055; in assay [9], inactive: -0.005; in assay [10], inactive: -0.025.
With SERINC1 (UniProt Q9NRX5), the log2 fold change in assay [1] was inactive: 0.044; in assay [2], inactive: -0.048; in assay [3] it was inactive: 0.372; in [4], inactive: -0.021; in assay [5], inactive: 0.053; in assay [6], inactive: -0.083. The log2 fold change in [7] is inactive: -0.018; in assay [8] it was active: -0.874; in [9], inactive: 0.05; in assay [10], inactive: 0.002.
As for SH3BGRL3 (UniProt Q9H299), the log2 fold change in assay [1] is inactive: -0.032; in assay [2], inactive: -0.173; in assay [3], inactive: 0.08; in [4], inactive: -0.015; in [5], inactive: -0.043; in assay [6], inactive: -0.037. The log2 fold change is inactive: 0.196 in assay [7], inactive: -0.06 in assay [8], inactive: 0.011 in assay [9] and inactive: 0.033 in assay [10].
Regarding SERPINA7 (UniProt P05543), the log2 fold change in assay [1] was inactive: -0.121; in [2] it was inactive: 0.496; in [3], inactive: 0.067; in assay [4], inactive: -0.021; in assay [5], inactive: 0.086; in assay [6], inactive: -0.06. The log2 fold change is inactive: -0.271 in assay [7], inactive: -0.349 in [8], inactive: -0.043 in assay [9] and inactive: -0.127 in assay [10].
Consider SEMA4B (UniProt Q9NPR2), for which the log2 fold change in [1] was inactive: -0.022; in assay [2], inactive: -0.068; in assay [3], inactive: 0.056; in [4], inactive: -0.046; in [5], inactive: 0.021; in [6], inactive: -0.056. The log2 fold change in assay [7] is inactive: -0.002; in assay [8], inactive: -0.038; in [9], inactive: -0.115; in [10], inactive: 0.03.
Turning to SEMA4C (UniProt Q9C0C4), the log2 fold change in assay [1] is inactive: -0.01; in [2], inactive: -0.163; in assay [3] it was inactive: 0.031; in [4], inactive: -0.014; in assay [5] it was inactive: 0.019; in assay [6], inactive: 0.008. Moreover, the log2 fold change in assay [7] is inactive: -0.049; in assay [8], inactive: -0.037; in [9], inactive: 0.021; in assay [10], inactive: 0.01.
